The target of the assay is T1, Recombinant human HMGB1 (rHMGB1) (human), P09429.
T1 chain: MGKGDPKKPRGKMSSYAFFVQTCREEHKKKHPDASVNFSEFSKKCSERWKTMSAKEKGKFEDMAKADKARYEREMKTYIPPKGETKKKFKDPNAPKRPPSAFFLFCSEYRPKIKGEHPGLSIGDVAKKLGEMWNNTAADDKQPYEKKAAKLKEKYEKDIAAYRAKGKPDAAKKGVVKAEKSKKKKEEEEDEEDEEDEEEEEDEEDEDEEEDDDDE
Kind of assay: Sulfo-SBED label transfer, immunoblot. Conditions: remark: other sources report otherwise.

This is an account of results in patent publication EP4724480A2.

These are yes or no findings as the source states them, for the method shown. Some entries that bind do so weakly or less than the wild type.

B1: Recombinant human HMGB1 (rHMGB1), P09429 1-215 (ligand)
chain: T1 chain
B1: the binding result is given as “binds”.
